Measurements from PubChem BioAssay AID939 (National Center for Advancing Translational Sciences (NCATS), 2007).
This list was built around the results that the source calls inconclusive (neither active nor inactive); the mix of calls is not that of the screen. Potencies of inconclusive entries are doubtful fits and often do not repeat. Active and inactive are the calls of the source. Calls come from the whole dose curve; as a rule, active = well fitted activation curve with a large enough effect in the main read-out, with a control signal flat; inconclusive = small, poorly fitted or top-dose-only effect, or effect the other way, or a change in a side signal; inactive = no such curve, though single readings can be large or run the other way.

Amino acid sequences for entries named in this document (tags omitted).
UniProt P16473, whole entry, looked up: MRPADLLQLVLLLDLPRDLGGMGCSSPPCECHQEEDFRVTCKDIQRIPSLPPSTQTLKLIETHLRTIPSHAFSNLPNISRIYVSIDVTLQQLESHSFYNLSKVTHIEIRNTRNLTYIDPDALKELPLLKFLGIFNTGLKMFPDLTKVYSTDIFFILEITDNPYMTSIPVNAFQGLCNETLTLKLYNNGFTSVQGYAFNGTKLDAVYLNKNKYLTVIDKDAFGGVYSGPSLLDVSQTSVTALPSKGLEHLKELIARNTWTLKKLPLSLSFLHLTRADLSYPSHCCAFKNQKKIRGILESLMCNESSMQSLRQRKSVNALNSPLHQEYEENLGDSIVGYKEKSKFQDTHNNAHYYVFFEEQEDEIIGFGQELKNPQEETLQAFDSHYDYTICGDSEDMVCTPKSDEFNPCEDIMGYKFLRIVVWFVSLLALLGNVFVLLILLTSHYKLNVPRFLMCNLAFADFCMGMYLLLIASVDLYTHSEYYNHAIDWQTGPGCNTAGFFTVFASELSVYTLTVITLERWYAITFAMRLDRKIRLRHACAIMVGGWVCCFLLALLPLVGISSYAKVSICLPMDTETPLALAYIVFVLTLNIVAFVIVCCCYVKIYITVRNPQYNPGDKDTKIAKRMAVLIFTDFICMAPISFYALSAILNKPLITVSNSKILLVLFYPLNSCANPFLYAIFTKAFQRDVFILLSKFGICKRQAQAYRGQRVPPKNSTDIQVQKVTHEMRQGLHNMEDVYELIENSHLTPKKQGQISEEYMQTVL

Biological target: Thyrotropin receptor (Homo sapiens) (UniProt P16473)
Test: Confirmation Concentration-Response Assay for Agonists of the Thyroid Stimulating Hormone Receptor; for activation: % of control where 0% means no effect
Details: HEK293 TSHR-CNG cells, membrane potential dye, cAMP; activation: at 25.6 µM (top of the series)
Method in brief: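 A cyclic nucleotide gated channel serves as cAMP sensor in HEK 293 cells stably carrying TSHR, with depolarization detected by fluorescent dye at 590 nm after 30 min compound. Parental cells lacking TSHR run alongside.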
Potency is the fitted concentration of half-maximal effect.

SMILES	Potency	activation
COc1cccc(C2CC(c3ccccc3OC)n3nc(N)nc3N2)c1 (configuration not stated)	inactive	–
COC(=O)CNC(=O)C12CC3(C)CC(C)(CC(C)(C3)C1)C2	inconclusive: 12.6 µM [activator, partial curve]	–
Cc1ccc(Nc2nc(CSc3nnnn3-c3ccccc3)cc(=O)[nH]2)cc1	–	inconclusive: 49.9%
COc1ccc(S(=O)(=O)N(C)CC(=O)N2CCCCCC2)cc1OC	–	inconclusive: 4.98%
COc1cccc(CN2C(=O)CN(C3CCCCC3)C(=O)C2c2ccc(F)cc2)c1 (configuration not stated)	inconclusive: 7.94 µM [activator, partial curve]	–
CCOc1cc(C(=O)N(C)c2ccccc2)cc(OCC)c1OCC	inconclusive: 15.8 µM [activator, partial curve]	–
Cc1cc(=O)[nH]c(SCCOc2ccc3c(c2)CCC3)n1	inconclusive: 5.01 µM [activator, full curve]	–
Brc1ccc(Oc2nnnn2-c2ccccc2)cc1	inconclusive: 10 µM [activator, full curve, poor fit]	–
O=C(c1ccc(Br)o1)N(Cc1ccccc1)c1ccccn1	inconclusive: 15.8 µM [activator, partial curve, poor fit]	–
CC(C)c1nnc(NC(=O)CCC(=O)NCc2ccc3c(c2)OCO3)s1	inconclusive: 2 µM [activator, partial curve]	–
CCOc1ccc(N(CC(=O)Nc2ccc(C)cc2)S(=O)(=O)c2c(C)noc2C)cc1	inactive	–
COc1ccc(S(=O)(=O)NCCC(=O)NCc2ccc(F)cc2)cc1	inactive	–
